This is one part of the list.
Compound: C[C@H](C1=CC=C(C=C1)C(=O)NC2=C3C=CNC3=NC=C2)N
Assay: log2 fold change, soluble protein after heating vs DMSO (PISA); higher = thermal stabilisation; K562 cells, 10 uM, 30 min; active = over 0.2 and 3.5 SD of the protein, either way, in both replicates (recomputed)
Method in brief: (§1)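 K562 cells at 2×10^6 cells/mL were given 10 μM compound for 30 min. Aliquots then went through 3 min of heating across 48°C-58°C, were pooled, and were extracted in PBS with 0.5% NP-40 at 4°C, and the supernatant after 21,000xg for 90 min was quantified by TMTpro 16plex LC-MS/MS with channel sums equalised. Thermal stability relative to control samples, from duplicates, is given as log2 fold change.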

Sequences of proteins named here, by UniProt entry; tags and fusion partners are left off. A change or cut given only in a name is not applied to a line headed by its entry.
UniProt Q9HA47: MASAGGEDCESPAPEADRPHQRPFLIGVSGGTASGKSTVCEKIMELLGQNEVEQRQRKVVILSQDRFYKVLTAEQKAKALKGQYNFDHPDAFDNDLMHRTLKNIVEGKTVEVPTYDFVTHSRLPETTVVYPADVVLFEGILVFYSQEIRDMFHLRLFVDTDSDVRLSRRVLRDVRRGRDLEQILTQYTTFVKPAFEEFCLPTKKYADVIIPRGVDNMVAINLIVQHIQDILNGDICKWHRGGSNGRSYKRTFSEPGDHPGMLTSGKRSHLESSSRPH
UniProt Q16851: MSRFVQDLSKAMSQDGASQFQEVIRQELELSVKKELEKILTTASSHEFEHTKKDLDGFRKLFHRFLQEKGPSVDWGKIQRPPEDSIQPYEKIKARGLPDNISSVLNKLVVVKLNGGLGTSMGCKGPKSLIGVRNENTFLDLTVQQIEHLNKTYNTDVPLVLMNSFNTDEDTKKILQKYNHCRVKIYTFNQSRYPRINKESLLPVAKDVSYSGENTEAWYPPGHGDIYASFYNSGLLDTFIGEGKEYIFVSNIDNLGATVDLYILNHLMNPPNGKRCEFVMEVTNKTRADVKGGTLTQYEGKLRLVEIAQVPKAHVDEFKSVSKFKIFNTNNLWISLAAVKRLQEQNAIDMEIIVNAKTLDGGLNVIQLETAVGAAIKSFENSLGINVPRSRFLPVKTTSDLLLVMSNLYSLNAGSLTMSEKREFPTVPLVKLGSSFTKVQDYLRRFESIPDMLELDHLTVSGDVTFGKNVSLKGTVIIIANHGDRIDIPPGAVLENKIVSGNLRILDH
UniProt P31930: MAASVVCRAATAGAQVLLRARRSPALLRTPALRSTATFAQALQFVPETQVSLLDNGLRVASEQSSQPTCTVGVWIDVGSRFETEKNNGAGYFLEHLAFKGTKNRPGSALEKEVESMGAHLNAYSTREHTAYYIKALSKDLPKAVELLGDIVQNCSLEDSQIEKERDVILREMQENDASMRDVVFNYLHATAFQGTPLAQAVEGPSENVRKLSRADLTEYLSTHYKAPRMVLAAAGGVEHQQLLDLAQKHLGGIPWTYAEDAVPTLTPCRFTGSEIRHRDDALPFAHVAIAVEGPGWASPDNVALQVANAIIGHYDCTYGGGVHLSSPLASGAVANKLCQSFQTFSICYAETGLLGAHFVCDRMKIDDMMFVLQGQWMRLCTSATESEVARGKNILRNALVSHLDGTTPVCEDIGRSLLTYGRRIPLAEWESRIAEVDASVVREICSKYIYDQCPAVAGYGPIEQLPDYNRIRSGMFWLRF
UniProt Q9NRR5, whole entry, looked up: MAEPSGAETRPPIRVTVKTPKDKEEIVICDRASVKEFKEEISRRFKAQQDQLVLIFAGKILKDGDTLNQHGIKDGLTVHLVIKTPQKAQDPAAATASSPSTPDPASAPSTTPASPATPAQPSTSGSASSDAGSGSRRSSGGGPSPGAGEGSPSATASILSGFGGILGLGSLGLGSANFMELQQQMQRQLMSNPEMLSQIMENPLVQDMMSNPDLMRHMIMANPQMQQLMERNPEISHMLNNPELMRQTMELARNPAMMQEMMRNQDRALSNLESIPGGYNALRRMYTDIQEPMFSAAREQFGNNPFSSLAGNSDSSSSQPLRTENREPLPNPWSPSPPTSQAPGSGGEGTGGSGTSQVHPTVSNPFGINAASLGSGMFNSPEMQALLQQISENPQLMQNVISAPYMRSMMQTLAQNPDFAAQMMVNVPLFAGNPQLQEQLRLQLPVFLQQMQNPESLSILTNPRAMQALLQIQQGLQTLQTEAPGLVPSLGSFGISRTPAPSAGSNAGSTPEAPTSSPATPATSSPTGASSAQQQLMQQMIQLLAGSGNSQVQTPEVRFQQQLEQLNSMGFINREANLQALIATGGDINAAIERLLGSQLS
UniProt P45974: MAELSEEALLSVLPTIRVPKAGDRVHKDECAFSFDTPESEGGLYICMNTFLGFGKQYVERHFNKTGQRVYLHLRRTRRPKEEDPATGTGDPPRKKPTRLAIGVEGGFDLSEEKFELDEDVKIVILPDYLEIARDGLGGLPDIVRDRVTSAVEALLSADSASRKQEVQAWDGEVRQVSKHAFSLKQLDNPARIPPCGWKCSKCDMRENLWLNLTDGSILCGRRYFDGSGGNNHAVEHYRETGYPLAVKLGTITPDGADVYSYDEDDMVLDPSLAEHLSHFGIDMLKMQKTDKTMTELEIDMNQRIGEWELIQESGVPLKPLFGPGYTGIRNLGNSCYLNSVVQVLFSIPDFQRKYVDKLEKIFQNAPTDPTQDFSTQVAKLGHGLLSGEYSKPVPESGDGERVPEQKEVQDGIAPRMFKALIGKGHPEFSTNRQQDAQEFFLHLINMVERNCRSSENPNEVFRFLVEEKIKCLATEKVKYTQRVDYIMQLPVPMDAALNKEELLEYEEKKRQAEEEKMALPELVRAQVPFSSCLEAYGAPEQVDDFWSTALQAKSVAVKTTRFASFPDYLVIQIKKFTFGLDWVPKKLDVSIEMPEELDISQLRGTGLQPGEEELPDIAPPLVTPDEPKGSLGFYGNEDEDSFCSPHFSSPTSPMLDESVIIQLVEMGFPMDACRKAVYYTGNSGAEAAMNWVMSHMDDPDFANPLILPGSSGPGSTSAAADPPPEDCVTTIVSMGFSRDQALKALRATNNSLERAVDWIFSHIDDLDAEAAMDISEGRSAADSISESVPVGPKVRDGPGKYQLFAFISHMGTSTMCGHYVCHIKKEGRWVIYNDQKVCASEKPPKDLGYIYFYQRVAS
UniProt P47985: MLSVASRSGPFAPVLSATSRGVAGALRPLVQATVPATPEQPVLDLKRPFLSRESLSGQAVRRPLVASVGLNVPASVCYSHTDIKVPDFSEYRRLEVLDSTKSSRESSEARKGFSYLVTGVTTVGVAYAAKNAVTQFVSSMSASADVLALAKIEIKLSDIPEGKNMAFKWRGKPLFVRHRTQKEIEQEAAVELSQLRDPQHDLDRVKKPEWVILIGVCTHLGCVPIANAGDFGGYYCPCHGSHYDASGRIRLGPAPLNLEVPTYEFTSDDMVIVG
UniProt P11172: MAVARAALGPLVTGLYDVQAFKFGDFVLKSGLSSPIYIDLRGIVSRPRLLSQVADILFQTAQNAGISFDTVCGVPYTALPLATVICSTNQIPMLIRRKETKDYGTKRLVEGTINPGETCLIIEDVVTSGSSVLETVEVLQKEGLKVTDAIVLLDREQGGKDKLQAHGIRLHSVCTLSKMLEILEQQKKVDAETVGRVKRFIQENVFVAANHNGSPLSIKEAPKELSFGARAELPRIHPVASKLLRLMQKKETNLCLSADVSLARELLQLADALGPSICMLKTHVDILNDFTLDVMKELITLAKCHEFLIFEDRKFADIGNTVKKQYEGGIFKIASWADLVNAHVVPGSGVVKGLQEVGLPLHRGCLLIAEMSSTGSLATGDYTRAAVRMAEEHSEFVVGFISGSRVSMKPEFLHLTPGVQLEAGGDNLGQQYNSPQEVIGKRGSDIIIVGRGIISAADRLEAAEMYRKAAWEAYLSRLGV
UniProt Q9UHD9, whole entry, looked up: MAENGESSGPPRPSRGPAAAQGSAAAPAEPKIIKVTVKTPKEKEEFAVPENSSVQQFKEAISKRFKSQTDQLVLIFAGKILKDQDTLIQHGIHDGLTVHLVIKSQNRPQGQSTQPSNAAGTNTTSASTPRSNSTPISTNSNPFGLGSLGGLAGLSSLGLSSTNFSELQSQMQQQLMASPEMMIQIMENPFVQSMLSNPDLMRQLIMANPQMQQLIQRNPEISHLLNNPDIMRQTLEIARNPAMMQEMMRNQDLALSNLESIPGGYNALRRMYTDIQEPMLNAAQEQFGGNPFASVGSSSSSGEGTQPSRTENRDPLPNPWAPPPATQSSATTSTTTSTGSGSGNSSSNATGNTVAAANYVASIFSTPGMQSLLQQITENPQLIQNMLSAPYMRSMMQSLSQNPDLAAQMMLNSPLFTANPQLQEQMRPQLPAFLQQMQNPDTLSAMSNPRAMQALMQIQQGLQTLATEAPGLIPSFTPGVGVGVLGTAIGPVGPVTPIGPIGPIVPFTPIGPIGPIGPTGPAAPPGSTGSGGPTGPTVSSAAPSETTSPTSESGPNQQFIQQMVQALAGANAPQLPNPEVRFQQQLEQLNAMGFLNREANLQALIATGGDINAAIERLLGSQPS
UniProt P61758, whole entry, looked up: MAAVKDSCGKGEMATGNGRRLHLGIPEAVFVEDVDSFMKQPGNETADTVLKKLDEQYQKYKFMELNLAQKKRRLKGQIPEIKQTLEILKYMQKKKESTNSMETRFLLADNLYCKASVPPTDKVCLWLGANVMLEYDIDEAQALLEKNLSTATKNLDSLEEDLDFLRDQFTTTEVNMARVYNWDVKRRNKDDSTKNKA
UniProt Q53GS9: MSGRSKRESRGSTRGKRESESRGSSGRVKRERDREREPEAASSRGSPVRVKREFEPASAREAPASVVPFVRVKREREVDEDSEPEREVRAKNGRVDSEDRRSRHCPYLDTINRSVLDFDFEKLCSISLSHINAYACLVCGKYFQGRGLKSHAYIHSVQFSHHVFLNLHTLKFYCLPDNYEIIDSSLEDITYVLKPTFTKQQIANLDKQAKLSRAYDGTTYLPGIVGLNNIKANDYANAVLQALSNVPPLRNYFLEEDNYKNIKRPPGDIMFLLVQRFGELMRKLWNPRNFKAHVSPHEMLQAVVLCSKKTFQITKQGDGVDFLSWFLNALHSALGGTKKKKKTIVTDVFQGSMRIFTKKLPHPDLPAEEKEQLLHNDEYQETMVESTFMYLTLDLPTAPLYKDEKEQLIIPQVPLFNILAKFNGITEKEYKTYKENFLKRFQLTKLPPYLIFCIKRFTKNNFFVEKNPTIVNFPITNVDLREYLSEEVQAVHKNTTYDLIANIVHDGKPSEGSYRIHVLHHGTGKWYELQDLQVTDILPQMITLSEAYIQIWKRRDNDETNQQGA
UniProt P63027, whole entry, looked up: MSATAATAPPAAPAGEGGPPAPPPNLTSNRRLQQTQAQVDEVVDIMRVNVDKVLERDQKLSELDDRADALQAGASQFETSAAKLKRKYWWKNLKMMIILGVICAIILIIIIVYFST
UniProt Q9Y3C8: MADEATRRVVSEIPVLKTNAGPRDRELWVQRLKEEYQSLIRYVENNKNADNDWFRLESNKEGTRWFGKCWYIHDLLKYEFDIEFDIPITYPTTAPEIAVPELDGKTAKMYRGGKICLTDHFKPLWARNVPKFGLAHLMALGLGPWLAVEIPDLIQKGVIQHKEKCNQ
UniProt P07919: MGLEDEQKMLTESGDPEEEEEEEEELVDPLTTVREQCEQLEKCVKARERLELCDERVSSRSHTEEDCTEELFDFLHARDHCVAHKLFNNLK
UniProt Q14694, whole entry, looked up: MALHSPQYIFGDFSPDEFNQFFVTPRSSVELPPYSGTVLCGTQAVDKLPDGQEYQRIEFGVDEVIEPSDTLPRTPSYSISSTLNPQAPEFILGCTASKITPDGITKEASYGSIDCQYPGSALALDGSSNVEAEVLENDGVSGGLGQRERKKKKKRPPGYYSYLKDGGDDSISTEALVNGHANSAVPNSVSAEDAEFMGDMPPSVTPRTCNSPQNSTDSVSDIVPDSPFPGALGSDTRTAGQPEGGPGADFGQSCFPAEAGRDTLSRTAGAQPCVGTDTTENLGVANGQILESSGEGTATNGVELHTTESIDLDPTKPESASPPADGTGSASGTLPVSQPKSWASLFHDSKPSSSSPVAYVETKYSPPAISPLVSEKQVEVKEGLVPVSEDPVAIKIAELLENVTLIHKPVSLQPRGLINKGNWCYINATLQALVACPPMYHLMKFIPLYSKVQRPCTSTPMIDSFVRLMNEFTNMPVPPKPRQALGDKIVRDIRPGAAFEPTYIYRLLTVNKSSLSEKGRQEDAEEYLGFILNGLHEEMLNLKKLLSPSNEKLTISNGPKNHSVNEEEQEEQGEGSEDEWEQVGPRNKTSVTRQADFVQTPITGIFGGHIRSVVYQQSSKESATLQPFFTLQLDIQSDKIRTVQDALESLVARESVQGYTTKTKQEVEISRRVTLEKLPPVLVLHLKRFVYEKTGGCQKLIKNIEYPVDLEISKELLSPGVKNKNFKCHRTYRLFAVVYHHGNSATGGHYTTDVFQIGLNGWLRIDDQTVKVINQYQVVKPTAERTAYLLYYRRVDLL
UniProt P15374: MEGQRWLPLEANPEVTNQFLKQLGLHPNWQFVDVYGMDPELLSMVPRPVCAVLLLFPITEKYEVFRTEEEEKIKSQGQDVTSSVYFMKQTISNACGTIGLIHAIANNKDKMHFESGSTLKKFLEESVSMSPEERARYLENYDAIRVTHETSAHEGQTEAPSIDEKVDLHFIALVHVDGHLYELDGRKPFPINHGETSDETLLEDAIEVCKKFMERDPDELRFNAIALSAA
UniProt Q04323: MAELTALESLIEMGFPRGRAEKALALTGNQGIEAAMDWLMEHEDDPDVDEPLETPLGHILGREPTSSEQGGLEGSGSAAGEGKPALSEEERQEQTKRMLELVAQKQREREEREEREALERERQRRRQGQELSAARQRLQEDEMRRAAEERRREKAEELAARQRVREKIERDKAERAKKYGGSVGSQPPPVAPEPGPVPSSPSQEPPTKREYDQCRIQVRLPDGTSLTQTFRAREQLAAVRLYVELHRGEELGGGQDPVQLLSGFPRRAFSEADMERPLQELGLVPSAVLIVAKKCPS

log2 fold change, inactive:
UBXN7 (UniProt O94888) -0.038
URGCP (UniProt Q8TCY9) -0.06
UBXN4 (UniProt Q92575) 0.12
VANGL1 (UniProt Q8TAA9) -0.026
UCK1 (UniProt Q9HA47) -0.09
UGP2 (UniProt Q16851) -0.028
UQCRC1 (UniProt P31930) -0.032
VAPA isoform 2 (UniProt Q9P0L0) -0.014
UBQLN4 (UniProt Q9NRR5) -0.038
VAMP4 (UniProt O75379) -0.055
VAPB (UniProt O95292) -0.109
UVRAG (UniProt Q9P2Y5) 0.03
UQCRB (UniProt P14927) -0.057
VCL (UniProt P18206) -0.059
UIMC1 (UniProt Q96RL1) 0.199
UBR5 (UniProt O95071) 0.069
USP5 (UniProt P45974) -0.118
UQCRFS1 (UniProt P47985) -0.106
UMPS (UniProt P11172) -0.067
UQCRC2 (UniProt P22695) -0.05
UBQLN2 (UniProt Q9UHD9) -0.109
UQCC1 (UniProt Q9NVA1) -0.095
VAT1 (UniProt Q99536) -0.067
UBL5 (UniProt Q9BZL1) -0.066
VBP1 (UniProt P61758) -0.077
USP39 (UniProt Q53GS9) 0.016
VAMP2 (UniProt P63027) -0.273
UFC1 (UniProt Q9Y3C8) -0.049
UQCRH (UniProt P07919) 0
USP10 isoform 2 (UniProt Q14694) 0.055
UCHL3 (UniProt P15374) -0.053
VASP (UniProt P50552) 0.132
UEVLD (UniProt Q8IX04) -0.106
UPF1 (UniProt Q92900) -0.001
UNC45A (UniProt Q9H3U1) 0.149
USP8 (UniProt P40818) 0.15
UNC13D isoform 3 (UniProt Q70J99) 0.307
UBXN1 (UniProt Q04323) -0.034

Compound: C[C@H](Nc1ncnc2nc[nH]c12)c1cc2cccc(Cl)c2c(=O)n1-c1ccccc1 [duvelisib]
Assay: as above
Method in brief: as §1

log2 fold change, inactive:
UBXN7 (UniProt O94888) 0.092
URGCP (UniProt Q8TCY9) 0.058
UBXN4 (UniProt Q92575) 0.054
VANGL1 (UniProt Q8TAA9) -0.028
UCK1 (UniProt Q9HA47) 0.05
UGP2 (UniProt Q16851) 0.03
UQCRC1 (UniProt P31930) 0.011
VAPA isoform 2 (UniProt Q9P0L0) -0.012
UBQLN4 (UniProt Q9NRR5) 0.009
VAMP4 (UniProt O75379) -0.018
VAPB (UniProt O95292) 0.023
UVRAG (UniProt Q9P2Y5) 0.229
UQCRB (UniProt P14927) 0.012
VCL (UniProt P18206) 0
UIMC1 (UniProt Q96RL1) -0.079
UBR5 (UniProt O95071) -0.052
USP5 (UniProt P45974) 0.034
UQCRFS1 (UniProt P47985) 0.045
UMPS (UniProt P11172) 0.027
UQCRC2 (UniProt P22695) 0.007
UBQLN2 (UniProt Q9UHD9) -0.025
UQCC1 (UniProt Q9NVA1) 0.022
VAT1 (UniProt Q99536) 0.002
UBL5 (UniProt Q9BZL1) 0.043
VBP1 (UniProt P61758) 0.006
USP39 (UniProt Q53GS9) -0.056
VAMP2 (UniProt P63027) 0.023
UFC1 (UniProt Q9Y3C8) -0.007
UQCRH (UniProt P07919) 0.109
USP10 isoform 2 (UniProt Q14694) -0.009
UCHL3 (UniProt P15374) 0.028
VASP (UniProt P50552) -0.071
UEVLD (UniProt Q8IX04) 0.132
UPF1 (UniProt Q92900) 0.015
UNC45A (UniProt Q9H3U1) -0.014
USP8 (UniProt P40818) 0.004
UNC13D isoform 3 (UniProt Q70J99) -0.136
UBXN1 (UniProt Q04323) 0.031

— the supplement of paper PMC10849652
